Source: PubChem BioAssay AID901 (National Center for Advancing Translational Sciences (NCATS), 2007)
“And” between values parts separate entries of the source, which are not always exact repeats. Equal values may be shown once. Some of the results follow. Shown are side measurements of this screen, not its main read-out; they come without a call. Most of these compounds were active or inconclusive in the main read-out, so they are no random draw. Potencies come from curve fits of mixed quality, noted in brackets.

Experiment: qHTS Assay for Identifying the Cell-Membrane Permeable IMPase Inhibitors
Settings: CHO-M1 cells, IP1 accumulation, HTRF TR-FRET ratio; measured here: donor channel 620 nm AC50

Row | Compound | AC50
1 | O=C(NC1CCCCC1)N1CCCC(c2nc(-c3cccs3)no2)C1 (stereo unspecified) | 20 µM [falling, single point]
2 | CC(C)NC(=O)C(Cc1ccccc1)N1C(=O)c2ccccc2C1=O (stereo unspecified) | 0.251 µM [rising, single point]
3 | Cc1nc(SCC(=O)Nc2ccc(C)c(F)c2)c2oc3ccccc3c2n1 | 25.1 µM [rising, single point]
4 | CCn1cc(C(=O)Nc2cccc(NC(C)=O)c2)c2cc(OC)c(OC)cc2c1=O | 0.0316 µM [rising, full curve, poor fit]
5 | O=c1c(O)c(-c2cc(O)c(O)c(O)c2)oc2cc(O)cc(O)c12 | 794 nM [falling, full curve, poor fit] and 2 nM [falling, full curve, poor fit]
6 | CCc1nnc(NC(=O)CSc2nc3c(cc2C#N)CCC3)s1 | 31.6 µM [rising, single point]
7 | Nc1nc2ccc(S(=O)(=O)N3CCCCC3)cc2s1 | 0.01 µM [rising, full curve]
8 | COc1ccc(NC(=O)CN2CCN(S(=O)(=O)c3ccc(Cl)cc3)CC2)cc1 | 4.47 µM [rising, single point]
9 | Cn1c(=O)[nH]c(=O)c2c1nc(CN1CCOCC1)n2CCc1ccccc1 | 20 µM [rising, partial curve]
10 | COc1ccc(NC(=S)NCCc2ccc(Cl)cc2)c(OC)c1 | 0.01 µM [rising, full curve, poor fit]
11 | Cc1csc(NC(=O)NC2(C(F)(F)F)Oc3ccccc3O2)n1 | 0.501 µM [falling, partial curve, poor fit]
12 | CCOc1ccc(Cn2c(SCCCCC#N)nc3c2c(=O)n(C)c(=O)n3C)cc1OCC | 0.01 µM [rising, full curve]
13 | Cn1c(=O)c2c(nc(NCCNC(=O)c3ccco3)n2Cc2ccc(Cl)cc2Cl)n(C)c1=O | 5.01 µM [falling, partial curve]
14 | CCCC(=O)Nc1nc(C)c(-c2csc(Nc3ccccc3OC)n2)s1 | 1 µM [rising, partial curve]
15 | CCC1Oc2ccc(C)cc2N(CC(=O)N2CCN(c3ccc(F)cc3)CC2)C1=O (stereo unspecified) | 0.562 µM [rising, full curve, poor fit]
16 | CCCCCOc1ccc(Br)cc1/C(C)=N/NC1=NCCN1 | 25.1 µM [falling, partial curve, poor fit]
17 | CS(=O)(=O)Nc1nnc(Cc2ccccc2)s1 | 0.158 µM [falling, full curve]
18 | Cc1ccc(CNC(=O)CCCC(=O)O)cc1 | 0.316 µM [falling, full curve, poor fit]
19 | Cc1ccc2nsnc2c1S(=O)(=O)N(Cc1ccco1)Cc1cc2cccc(C)c2[nH]c1=O | 3.98 µM [rising, single point]
20 | Nc1nnc(SCc2ccc3c(c2)OCO3)s1 | 1.26 µM [falling, partial curve, poor fit]
21 | O=C(CSc1n[nH]c(-c2cccs2)n1)NCc1cccs1 | 0.00501 µM [falling, full curve, poor fit]
22 | COc1ccc(NC(=O)O/N=C2/CCCc3ccc(OC)cc32)cc1 | 5.01 µM [falling, full curve, poor fit]

Row | Compound | AC50
23 | Cc1cc(C)c2c(n1)nn1c(NCCN3CCOCC3)cc(C)nc21 | 1 µM [falling, single point]
24 | CC(=O)NC1(C(F)(F)F)C(=O)Nc2c1c(=O)n(C)c(=O)n2C (stereo unspecified) | 0.0398 µM [falling, full curve, poor fit]
25 | COC(=O)C1=C(O)/C(=C\c2ccc(O)c(OC)c2)N=C1C | 10 µM [falling, partial curve]
26 | O=C(Nc1ccc(Cl)cc1)c1ccncc1 | 0.0398 µM [falling, full curve, poor fit]
27 | O=C(Nn1c(O)c(C=C2N=c3ccccc3=N2)sc1=S)c1ccc(Cl)cc1 | 31.6 µM [falling, single point]
28 | O=C(CSc1nc2ccsc2c(=O)n1NC(=O)c1ccccc1)Nc1nccs1 | 6.31 µM [falling, single point]
29 | O=C(Nc1ccccc1)O/N=C/c1ccncc1 | 3.98 µM [rising, partial curve]
30 | COc1ccc(OCc2ccc(-c3nc4ccccc4c(=O)n3N)o2)cc1 | 0.794 µM [falling, full curve, poor fit]
31 | O=C(NCCNC(=O)c1cc(OCC(F)(F)F)ccc1OCC(F)(F)F)Nc1ccc(OC(F)(F)F)cc1 | 6.31 µM [rising, single point]
32 | COc1ccc2[nH]c(C(=O)O)c(NS(=O)(=O)c3ccc(Cl)s3)c2c1 | 1.58 µM [rising, partial curve, poor fit]
33 | N#CC(=C=[N-])c1nc2ccccc2nc1-[n+]1ccccc1 | 1.58 µM [falling, partial curve, poor fit]
34 | COC(=O)c1ccc(NC(=O)C23CC4CC(C2)CC(n2cncn2)(C4)C3)cc1 | 0.251 µM [falling, full curve]
35 | Cc1cc2c(N=O)c(NO)ccc2[nH]1 | 15.8 µM [falling, single point]
36 | CCn1c(=O)sc2cc(NS(=O)(=O)c3ccc(F)c(C)c3)ccc21 | 0.0224 µM [falling, full curve, poor fit]
37 | COc1cccc(C(=O)N=c2sc3c(C)ccc(OC)c3n2C)c1 | 31.6 µM [rising, single point]
38 | O=C1C=C(Nc2ccccc2O)c2ccccc2C1=O | 10 µM [falling, partial curve, poor fit]
39 | C=C(C)Cn1c(CCNC(=O)CC)nc2ccccc21 | 0.794 µM [falling, full curve]
40 | CCC(C)NS(=O)(=O)c1ccc(OCC(=O)NCc2cccnc2)cc1 (stereo unspecified) | 3.16 µM [falling, single point]
41 | COC(=O)c1cc(NCc2c(F)cccc2Cl)ccc1N1CCOCC1 | 31.6 µM [falling, single point]
42 | CCOc1cc(/C=C2/N=C(c3ccc(C(C)(C)C)cc3)OC2=O)cc(Cl)c1OS(C)(=O)=O | 0.01 µM [rising, full curve, poor fit]
43 | CCC(C)C(=O)O[C@H]1C[C@@H](C)C=C2C=C[C@H](C)[C@H](CC[C@@H]3C[C@@H](O)CC(=O)O3)C21 (stereo partly specified) | 12.6 µM [rising, single point]
44 | O=C(CSc1cnc2ccccc2n1)NC1CCCC1 | 12.6 µM [rising, partial curve]

Excerpt, compounds 39–40
Row | Compound | AC50
39 | C=C(C)Cn1c(CCNC(=O)CC)nc2ccccc21 | 0.794 µM [falling, full curve]
40 | CCC(C)NS(=O)(=O)c1ccc(OCC(=O)NCc2cccnc2)cc1 (stereo unspecified) | 3.16 µM [falling, single point]

Next compounds

Row | Compound | AC50
45 | COc1ccccc1N(C(C)=O)c1nc(C)cc(C)c1C#N | 1.58 µM [falling, partial curve]
46 | CCN(CC)S(=O)(=O)c1cccc(-c2nnc(SCC(N)=O)n2CCc2ccccc2)c1 | 5.01 µM [falling, single point]
47 | COc1ccccc1-c1cc(C(=O)Nc2ccc(F)cc2F)no1 | 3.98 µM [falling, partial curve, poor fit]
48 | Cc1ccnc(N2CCC(C(=O)NCc3ccc4c(c3)OCO4)CC2)n1 | 35.5 µM [falling, single point]
49 | Cc1ccc(Nc2nc3c(c(=O)[nH]c(=O)n3C)n2Cc2ccc(F)cc2)cc1 | 0.1 µM [falling, single point]
50 | O=C(O)c1cc(S(=O)(=O)NCC2CCCO2)ccc1Cl (stereo unspecified) | 0.1 µM [falling, full curve, poor fit]
51 | CCCCc1ccc(NC(=O)N[C@H](C(=O)O)C(C)C)cc1 | 31.6 µM [falling, single point]
52 | CC(C)(C)OC(=O)N1CCC(C(=O)N2CCCCCC2)CC1 | 5.01 µM [falling, single point]
53 | CCOC(=O)CNS(=O)(=O)c1ccc(C(=O)O)cc1 | 0.501 µM [rising, full curve, poor fit]
54 | O=C(CSc1nnnn1C1CCCCC1)Nc1nc2c(s1)CCCC2 | 3.98 µM [falling, full curve, poor fit]
55 | CN(C)c1nc(N(C)C)nc(N2CCCCC2)n1 | 0.02 µM [rising, full curve, poor fit]
56 | O=c1/c(=C/c2ccccn2)sc2nc3ccccc3n12 | 0.0631 µM [rising, single point]
57 | S=c1[nH]nc(-c2ccccc2)o1 | 12.6 µM [rising, partial curve]
58 | COc1cc(-c2oc3ccc(C)cc3c(=O)c2O)cc(OC)c1OC | 3.55 µM [falling, single point]
59 | CC1(C)CC(=O)C(C(=S)Nc2ccccc2)=C(NCCN2CCOCC2)C1 | 31.6 µM [rising, single point]
60 | Cc1cc(C(=O)N(C)C)sc1-c1ccccc1 | 1.26 µM [falling, full curve]
61 | O=C(Cn1ncc2c1-c1ccccc1OC2)N1CCN(c2ccccn2)CC1 | 0.126 µM [rising, single point]
62 | Cc1cccc(N2CCN(C(=O)Cn3cnc4c3c(=O)n(C)c(=O)n4C)CC2)c1C | 0.158 µM [falling, full curve, poor fit]
63 | Cc1cc(C)cc(N(CC(=O)NCc2ccco2)C(=O)CCC(=O)Nc2ccccn2)c1 | 0.0398 µM [falling, full curve, poor fit]
64 | CCCCNc1c2c3c(cccc3n(C)c1=O)C(=O)c1ccccc1-2 | 15.8 µM [rising, single point]
65 | Cc1cccc(N(CC(=O)N2CCCC2)S(=O)(=O)c2ccccc2)c1C | 28.2 µM [rising, single point]
66 | CC1SC(c2cccc(Cl)c2)NC1=O (stereo unspecified) | 6.31 µM [falling, full curve, poor fit]

Compounds from the list above containing an aryl thioether with sulfur outside any ring:
Row | Compound | AC50
3 | Cc1nc(SCC(=O)Nc2ccc(C)c(F)c2)c2oc3ccccc3c2n1 | 25.1 µM [rising, single point]
6 | CCc1nnc(NC(=O)CSc2nc3c(cc2C#N)CCC3)s1 | 31.6 µM [rising, single point]
12 | CCOc1ccc(Cn2c(SCCCCC#N)nc3c2c(=O)n(C)c(=O)n3C)cc1OCC | 0.01 µM [rising, full curve]
20 | Nc1nnc(SCc2ccc3c(c2)OCO3)s1 | 1.26 µM [falling, partial curve, poor fit]
21 | O=C(CSc1n[nH]c(-c2cccs2)n1)NCc1cccs1 | 0.00501 µM [falling, full curve, poor fit]
28 | O=C(CSc1nc2ccsc2c(=O)n1NC(=O)c1ccccc1)Nc1nccs1 | 6.31 µM [falling, single point]
44 | O=C(CSc1cnc2ccccc2n1)NC1CCCC1 | 12.6 µM [rising, partial curve]
46 | CCN(CC)S(=O)(=O)c1cccc(-c2nnc(SCC(N)=O)n2CCc2ccccc2)c1 | 5.01 µM [falling, single point]
54 | O=C(CSc1nnnn1C1CCCCC1)Nc1nc2c(s1)CCCC2 | 3.98 µM [falling, full curve, poor fit]
